Measurements as given in the supplement of paper PMC8960247.
Structures can show the parent of a compound that is named as a salt. This is a noisy data set.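 The cells are immortalized human renal angiomyolipoma cells carrying an empty vector, so TSC2 stays lost. Viability was read by a luminescent ATP assay and normalized to vehicle-treated wells on each plate, in low-serum medium where TSC2-rescued cells do not grow.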

System: 621-102 (TSC2-deficient)
Test: relative viability vs DMSO (fraction); higher = less cytotoxic
Conditions: serum: 0.1% FBS, 72 h

Compound	relative viability (0.0128 nM)	relative viability (0.064 nM)	relative viability (0.32 nM)	relative viability (1.6 nM)	relative viability (8 nM)	relative viability (40 nM)	relative viability (200 nM)	relative viability (1000 nM)	relative viability (5000 nM)
O=C(Nc1cccc(Cl)c1)Nc1ncc(CCNc2ncnc3ccsc23)s1 [SNS-314 Mesylate]	0.825	0.833	0.864	0.841	0.0374	0.0165	0.0167	0.0449	0.0625
CC1(C)CC(=O)c2c(C(F)(F)F)nn(-c3ccc(C(N)=O)c(N[C@H]4CC[C@H](O)CC4)c3)c2C1 [SNX-2112]	0.901	0.918	0.906	0.814	0.611	0.0842	0.0168	0.00979	0.0149
CN1[C@@H]2C[C@@H](OC(=O)[C@H](CO)c3ccccc3)C[C@H]1[C@@H]1O[C@@H]12 [Scopolamine HBr]	0.096	0.364	0.665	0.785	0.505	0.653	0.753	0.892	0.608
Cc1ncc([N+](=O)[O-])n1CC(C)O (stereo not given) [Secnidazole]	0.734	0.812	0.824	0.836	0.803	0.831	0.862	0.8	0.841
C#CCN(C)[C@H](C)Cc1ccccc1 [Selegiline hydrochloride]	0.83	0.809	0.825	0.758	0.821	0.781	0.813	0.755	0.82
N[C@@H](CC(=O)N1CCn2c(nnc2C(F)(F)F)C1)Cc1cc(F)c(F)cc1F [Sitagliptin phosphate monohydrate]	0.762	0.816	0.736	0.667	0.7	0.653	0.598	0.627	0.598
CNC(=O)c1cc(Oc2ccc(NC(=O)Nc3ccc(Cl)c(C(F)(F)F)c3)cc2)ccn1 [Sorafenib Tosylate]	0.831	0.869	0.844	0.846	0.765	0.715	0.852	0.476	0.0101
CC(C)NCC(O)c1ccc(NS(C)(=O)=O)cc1 (stereo not given) [Sotalol]	0.57	0.699	0.76	0.779	0.799	0.758	0.831	0.819	0.818
Cc1cn([C@H]2C=C[C@@H](CO)O2)c(=O)[nH]c1=O [Stavudine]	1.41	1.36	1.59	1.52	0.907	0.93	1.19	1.6	1.25
Cc1cc(NS(=O)(=O)c2ccc(N)cc2)no1 [Sulfamethoxazole]	0.67	0.673	0.717	0.732	0.721	0.665	0.631	0.606	0.538
Nc1ccc(S(N)(=O)=O)cc1 [Sulfanilamide]	1.4	1.51	1.64	1.54	0.751	0.855	1.11	1.82	0.958
CCN(CC)CCNC(=O)c1c(C)[nH]c(/C=C2\C(=O)Nc3ccc(F)cc32)c1C [Sunitinib Malate]	1.01	0.959	0.801	0.824	0.824	0.797	0.724	0.627	0.421
Cn1c(=O)c(F)c(Nc2ccc(I)cc2F)c2c(=O)n(C[C@@H](O)CO)cnc21 [TAK-733]	0.965	0.912	0.998	0.926	0.926	0.847	0.666	0.466	0.295
Cc1cc(OCCCS(C)(=O)=O)cc(C)c1-c1cccc(COc2ccc3c(c2)OC[C@H]3CC(=O)O)c1 [TAK-875]	0.713	0.799	0.669	0.176	0.74	0.667	0.741	0.781	0.746
CCS(=O)(=O)c1cccc(-c2cc(C(=O)NC3CCN(C)CC3)c(C)c3[nH]c4ncc(C)cc4c23)c1 [TAK-901]	0.944	0.996	0.999	1.02	0.836	0.15	0.0689	0.0302	0.0117
Nc1nc(N)c2nc(-c3cccc(O)c3)c(-c3cccc(O)c3)nc2n1 [TG100-115]	1.22	1.53	1.42	1.09	0.557	0.851	0.931	1.13	0.587
Cc1cc(C(C)Nc2ccccc2)c2nc(N3CCOCC3)cc(=O)n2c1 (stereo not given) [TGX-221]	0.878	0.907	0.891	0.82	0.748	0.841	0.721	0.699	0.613
Cc1[nH]c(/C=C2\C(=O)Nc3ccccc32)c(C)c1CCC(=O)O [TSU-68]	0.903	0.832	0.907	0.951	0.845	0.634	0.427	0.3	0.154
CN1CC(=O)N2[C@H](c3ccc4c(c3)OCO4)c3[nH]c4ccccc4c3C[C@@H]2C1=O [Tadalafil]	0.957	0.978	0.82	0.948	0.788	0.738	0.476	0.307	0.694
CC/C(=C(\c1ccccc1)c1ccc(OCCN(C)C)cc1)c1ccccc1 [Tamoxifen Citrate]	0.884	0.884	0.823	0.836	0.791	0.634	0.544	0.228	0.00657
CCOc1ccccc1OCCN[C@H](C)Cc1ccc(OC)c(S(N)(=O)=O)c1 [Tamsulosin]	0.675	0.77	0.787	0.826	0.827	0.798	0.854	0.814	0.763
COc1cc2c(N3CCN(C(=O)Nc4ccc(OC(C)C)cc4)CC3)ncnc2cc1OCCCN1CCCCC1 [Tandutinib (MLN518)]	0.849	0.807	0.86	0.869	0.841	0.813	0.823	0.67	0.168
CNC(=O)c1cc(COc2nnc(Nc3ccc(Cl)cc3)c3ccoc23)ccn1 [Telatinib]	1.01	0.943	0.896	0.856	0.822	0.858	0.792	0.8	0.0192

A second format for part of the listing above.
Compound,relative viability (0.0128 nM),relative viability (0.064 nM),relative viability (0.32 nM),relative viability (1.6 nM),relative viability (8 nM),relative viability (40 nM),relative viability (200 nM),relative viability (1000 nM),relative viability (5000 nM)
CC1(C)CC(=O)c2c(C(F)(F)F)nn(-c3ccc(C(N)=O)c(N[C@H]4CC[C@H](O)CC4)c3)c2C1 [SNX-2112],0.901,0.918,0.906,0.814,0.611,0.0842,0.0168,0.00979,0.0149
N[C@@H](CC(=O)N1CCn2c(nnc2C(F)(F)F)C1)Cc1cc(F)c(F)cc1F [Sitagliptin phosphate monohydrate],0.762,0.816,0.736,0.667,0.7,0.653,0.598,0.627,0.598
Cc1cc(OCCCS(C)(=O)=O)cc(C)c1-c1cccc(COc2ccc3c(c2)OC[C@H]3CC(=O)O)c1 [TAK-875],0.713,0.799,0.669,0.176,0.74,0.667,0.741,0.781,0.746
Nc1nc(N)c2nc(-c3cccc(O)c3)c(-c3cccc(O)c3)nc2n1 [TG100-115],1.22,1.53,1.42,1.09,0.557,0.851,0.931,1.13,0.587
Cc1[nH]c(/C=C2\C(=O)Nc3ccccc32)c(C)c1CCC(=O)O [TSU-68],0.903,0.832,0.907,0.951,0.845,0.634,0.427,0.3,0.154
CCOc1ccccc1OCCN[C@H](C)Cc1ccc(OC)c(S(N)(=O)=O)c1 [Tamsulosin],0.675,0.77,0.787,0.826,0.827,0.798,0.854,0.814,0.763
COc1cc2c(N3CCN(C(=O)Nc4ccc(OC(C)C)cc4)CC3)ncnc2cc1OCCCN1CCCCC1 [Tandutinib (MLN518)],0.849,0.807,0.86,0.869,0.841,0.813,0.823,0.67,0.168
CNC(=O)c1cc(COc2nnc(Nc3ccc(Cl)cc3)c3ccoc23)ccn1 [Telatinib],1.01,0.943,0.896,0.856,0.822,0.858,0.792,0.8,0.0192

Going on with the list:

Compound	relative viability (0.0128 nM)	relative viability (0.064 nM)	relative viability (0.32 nM)	relative viability (1.6 nM)	relative viability (8 nM)	relative viability (40 nM)	relative viability (200 nM)	relative viability (1000 nM)	relative viability (5000 nM)
CCCc1nc2c(C)cc(-c3nc4ccccc4n3C)cc2n1Cc1ccc(-c2ccccc2C(=O)O)cc1 [Telmisartan]	0.765	0.772	0.803	0.726	0.731	0.656	0.69	0.731	0.748
C[C@H](Cn1cnc2c(N)ncnc21)OCP(=O)(O)O [Tenofovir]	0.724	0.566	0.61	0.586	0.507	0.528	0.536	0.504	0.546
CN(C/C=C/C#CC(C)(C)C)Cc1cccc2ccccc12 [Terbinafine hydrochloride]	0.676	0.629	0.539	0.609	0.51	0.566	0.457	0.612	0.559
CCC(=O)O[C@H]1CC[C@H]2[C@@H]3CCC4=CC(=O)CC[C@]4(C)[C@H]3CC[C@]12C [Testosterone propionate]	0.901	0.868	0.834	0.878	0.838	0.77	0.775	0.75	0.459
CCCCNc1ccc(C(=O)OCCN(C)C)cc1 [Tetracaine HCl]	0.706	0.694	0.16	0.626	0.727	0.663	0.665	0.698	0.613
C[N+]1(C)[C@@H]2C[C@@H](OC(=O)C(O)(c3cccs3)c3cccs3)C[C@H]1[C@@H]1O[C@@H]12 [Tiotropium Bromide hydrate]	0.961	0.922	0.883	0.84	0.756	0.681	0.802	0.699	0.679
C[N+]1(C)[C@@H]2C[C@@H](OC(=O)C(O)(c3cccs3)c3cccs3)C[C@H]1[C@@H]1O[C@@H]12 [Tiotropium Bromide]	1.05	1.15	0.997	0.967	0.813	0.654	0.779	0.902	0.546
O=c1oc2cc(O)ccc2s1 [Tioxolone]	0.878	0.953	0.873	0.906	0.768	0.715	0.713	0.735	0.777
Cn1cncc1[C@@](N)(c1ccc(Cl)cc1)c1ccc2c(c1)c(-c1cccc(Cl)c1)cc(=O)n2C [Tipifarnib]	0.957	0.801	0.803	0.805	0.713	0.314	0.00794	0.00636	0.00741
Cc1ccc(O)c([C@H](CCN(C(C)C)C(C)C)c2ccccc2)c1 [Tolterodine tartrate]	0.296	0.305	0.707	0.637	0.608	0.447	0.672	0.0976	0.305
CC[C@@]1(O)C(=O)OCc2c1cc1n(c2=O)Cc2cc3c(CN(C)C)c(O)ccc3nc2-1 [Topotecan HCl]	0.836	0.847	0.778	0.82	0.785	0.363	0.0277	0.0231	0.0138
O=c1n(CCCN2CCN(c3cccc(Cl)c3)CC2)nc2ccccn12 [Trazodone HCl]	1.01	1.05	0.991	0.907	0.581	0.644	0.504	0.485	0.637
CC(/C=C/C(=O)NO)=C\[C@@H](C)C(=O)c1ccc(N(C)C)cc1 [Trichostatin A]	0.767	0.805	0.797	0.752	0.654	0.632	0.582	0.491	0.33
C[C@]12CC[C@H]3[C@@H](CC[C@@]45O[C@@H]4C(O)=C(C#N)C[C@]35C)[C@@H]1CC[C@@H]2O [Trilostane]	0.857	0.864	0.849	0.886	0.874	0.812	0.848	0.81	0.736
CN1[C@@H]2CC[C@H]1C[C@@H](OC(=O)c1c[nH]c3ccccc13)C2 [Tropisetron]	0.768	0.714	0.742	0.729	0.655	0.663	0.674	0.798	0.565
O=C(O[C@H]1C[C@H]2CC[C@@H](C1)[N+]21CCCC1)C(O)(c1ccccc1)c1ccccc1 [Trospium chloride]	0.647	0.723	0.852	0.917	0.72	0.888	0.857	0.824	0.443
CN1CCc2c(c3ccccc3n2Cc2ccc(C(=O)NO)cc2)C1 [Tubastatin A hydrochloride]	0.862	0.835	0.752	0.773	0.725	0.822	0.646	0.677	0.668
N#CC(=C(/N)Sc1ccccc1N)/C(C#N)=C(\N)Sc1ccccc1N [U0126-EtOH]	0.829	0.811	0.789	0.842	0.756	0.686	0.76	0.706	0.828
NC(=O)c1cccc(-c2cccc(OC(=O)NC3CCCCC3)c2)c1 [URB597]	0.922	0.888	0.862	0.823	0.771	0.872	0.865	0.701	0.74
Cc1cc(Nc2cc(N3CCN(C)CC3)nc(Sc3ccc(NC(=O)C4CC4)cc3)n2)n[nH]1 [VX-680]	0.653	0.829	0.74	0.808	0.764	0.652	0.0659	0.0269	0.0217
NC(=O)c1ccc(N(C(N)=O)c2c(F)cccc2F)nc1-c1ccc(F)cc1F [VX-702]	0.963	0.963	1.09	0.784	0.629	0.321	0.762	0.876	0.686
O=c1ncn2nc(Sc3ccc(F)cc3F)ccc2c1-c1c(Cl)cccc1Cl [VX-745]	0.65	0.778	0.724	0.718	0.798	0.723	0.708	0.678	0.74
